The record followed here is PubChem BioAssay AID248 (DTP/NCI, 2004).

The test system of the experiment is L1210 leukemia ip in BDF1 mice, survival T/C. Nature of the experiment: NCI In Vivo Anticancer Drug Screen. Data for tumor model L1210 Leukemia (intraperitoneal) in B6D2F1 (BDF1) mice. The conditions noted are these: T/C endpoint: mean survival time, higher T/C = longer survival.
Setting [1] is: dose: 400.0 mg/kg/injection, schedule: Q04DX002 (ip), vehicle: saline.
Setting [2] is: dose: 100.0 mg/kg/injection, schedule: Q01DX009 (ip), vehicle: saline.
[3] abbreviates: dose: 400.0 mg/kg/injection, schedule: Q01DX009 (ip), vehicle: Klucel (hydroxypropylcellulose) (HPC).
[4] abbreviates: dose: 400.0 mg/kg/injection, schedule: Q04DX003 (ip), vehicle: saline.

The list is a part of this screen's results and no random one: it is rich in T/C values a quarter to a half above the control, in often repeated tests (any T/C) and in doses without a T/C. Further doses and runs are listed elsewhere. T/C gives the treated animals as a percentage of the vehicle group. Some entries give survivors of the animals treated and no T/C: the source files T/C as zero there, which appears to mark a toxic dose or a test without result, not a measured value. Some doses without a T/C left all or most animals alive at the check, yet need not have been tolerated: the source hardly ever lists a survival T/C far under the control, and the zero likely stands for such cases as well. Counts of survivors are from the toxicity check (mostly the fifth day) where no day follows; animals may have died later. Schedules are NCI's codes, read here as Q, the interval in days (D) or hours (H), X, the number of doses. Signs of the kind (2×) count equal records among those shown. Some schedules carry Z or #; the key to these is not given. Where survival is the endpoint, the PubChem record calls one and a half times the control and up active, and a quarter to a half above the control has no call in these data; cut-offs in other NCI protocols can differ. Some doses were run more than once; their values stand side by side, smallest first. Some T/C values carry the count of animals alive at the toxicity check (mostly the fifth day); without a count, all were alive then.

With `C[n+]1c(-c2ccccc2)c2cc(N)ccc2c2ccccc21`, the T/C is 131 % of control (dose: 0.5 mg/kg/injection, schedule: Q01DX Z (ip), vehicle: methylcellulose (MC)); 130 % of control (dose: 0.8 mg/kg/injection, schedule: Q01DX Z (ip), vehicle: methylcellulose (MC)); 127 % of control (dose: 4.0 mg/kg/injection, schedule: Q01DX Z (ip), vehicle: methylcellulose (MC)); 132 % of control (dose: 4.4 mg/kg/injection, schedule: Q01DX Z (ip), vehicle: carboxymethylcellulose (CMC)); 129 % of control (dose: 6.0 mg/kg/injection, schedule: Q01DX Z (ip), vehicle: methylcellulose (MC)); 131 % of control (dose: 6.0 mg/kg/injection, schedule: Q01DX Z (ip), vehicle: saline). The T/C by setting is: (dose: 6.6 mg/kg/injection, schedule: Q01DX Z (ip), vehicle: carboxymethylcellulose (CMC)) 125 % of control; (dose: 10.0 mg/kg/injection, schedule: Q01DX Z (ip), vehicle: carboxymethylcellulose (CMC)) 129 % of control; (dose: 12.0 mg/kg/injection, schedule: Q01DX Z (ip), vehicle: methylcellulose (MC)) 127 % of control; (dose: 12.0 mg/kg/injection, schedule: Q01DX Z (ip), vehicle: saline) 131 % of control; (dose: 15.0 mg/kg/injection, schedule: Q01DX Z (ip), vehicle: carboxymethylcellulose (CMC)) 132 % of control; (dose: 16.0 mg/kg/injection, schedule: Q01DX Z (ip), vehicle: methylcellulose (MC)) 126 and 127 % of control. The T/C (dose: 24.0 mg/kg/injection, schedule: Q01DX Z (ip), vehicle: saline) is 144 % of control. The survivor count is 4 of 6 (dose: 36.0 mg/kg/injection, schedule: Q01DX Z (ip), vehicle: saline); 1 of 6 (dose: 54.0 mg/kg/injection, schedule: Q01DX Z (ip), vehicle: saline); 0 of 6 (dose: 75.0 mg/kg/injection, schedule: Q01DX001 (ip), vehicle: saline); 0 of 6 (dose: 81.0 mg/kg/injection, schedule: Q01DX Z (ip), vehicle: saline); 0 of 6 (dose: 150.0 mg/kg/injection, schedule: Q01DX001 (ip), vehicle: saline); 0 of 6 (dose: 300.0 mg/kg/injection, schedule: Q01DX001 (ip), vehicle: saline).
For the compound `O=C(O)C1OC1(c1cccc(Cl)c1)c1ccccc1Cl` (stereo not drawn), the survivor count (dose: 400.0 mg/kg/injection, schedule: Q01DX001 (ip), vehicle: olive oil, sesame oil, peanut oil) was 1 of 4.
For the compound `N#CCCN(N=O)C(=O)Nc1ccccc1`, the T/C (dose: 150.0 mg/kg/injection, schedule: Q01DX001 (ip), vehicle: carboxymethylcellulose (CMC)) is 147 % of control [9 of 10 alive]. Also, the survivor count reads like this: (dose: 300.0 mg/kg/injection, schedule: Q01DX001 (ip), vehicle: carboxymethylcellulose (CMC)) 0 of 10; (dose: 600.0 mg/kg/injection, schedule: Q01DX001 (ip), vehicle: carboxymethylcellulose (CMC)) 0 of 10; (dose: 1200.0 mg/kg/injection, schedule: Q01DX001 (ip), vehicle: carboxymethylcellulose (CMC)) 0 of 10; (dose: 2400.0 mg/kg/injection, schedule: Q01DX001 (ip), vehicle: carboxymethylcellulose (CMC)) 0 of 10.
As for `COc1ccc(CC(C)N)cc1OC` (stereo not drawn), the survivor count under setting [1] is on record as 0 of 3.
As to `CN(C)CN(C)C`, the survivor count is on record as 5 of 6 (dose: 100.0 mg/kg/injection, schedule: Q01DX001 (ip), vehicle: saline) and 6 of 6 under setting [2].
Consider `COc1cc(N(C)C)c(OC)cc1C=O`, for which the survivor count under setting [3] is 3 of 6.
Take `C=CCn1cnc(=N)c2[nH]cnc21`: under setting [4], the survivor count is reported as 0 of 6.
Regarding `O=C(CCl)OC(=O)C(Cl)(Cl)Cl`, under setting [4], the survivor count is listed as 0 of 6.
As for `c1ccc(N/N=C(/C[n+]2cc3ccccc3c3ccccc32)c2ccccc2)cc1`, the survivor count (dose: 200.0 mg/kg/injection, schedule: Q01DX009 (ip), vehicle: Klucel (hydroxypropylcellulose) (HPC)) is recorded as 4 of 6 and the survivor count under setting [3] is recorded as 0 of 6.
As to `COc1ccccc1NC(=O)N(CCCl)N=O`, the T/C was 127 and 142 % of control (dose: 5.3 mg/kg/injection, schedule: Q01DX009 (ip), vehicle: carboxymethylcellulose (CMC)); 149 % of control (dose: 8.0 mg/kg/injection, schedule: Q01DX009 (ip), vehicle: carboxymethylcellulose (CMC)). Besides, the survivor count reads like this: (dose: 200.0 mg/kg/injection, schedule: Q01DX001 (ip), vehicle: carboxymethylcellulose (CMC)) 1 of 4; (dose: 400.0 mg/kg/injection, schedule: Q01DX001 (ip), vehicle: carboxymethylcellulose (CMC)) 0 of 4.
On to `CCCNC(=O)NO`, for which the T/C is 132 % of control (dose: 400.0 mg/kg/injection, schedule: Q01DX009 (ip), vehicle: other); 146 % of control (dose: 600.0 mg/kg/injection, schedule: Q01DX009 (ip), vehicle: other); 141 % of control (dose: 900.0 mg/kg/injection, schedule: Q01DX009 (ip), vehicle: other).
Turning to `CCCCNC(c1ccccc1)=[N+]1CCCCC1`, the survivor count is, setting by setting: (dose: 50.0 mg/kg/injection, schedule: Q04DX002 (ip), vehicle: saline) 1 of 3; (dose: 100.0 mg/kg/injection, schedule: Q04DX002 (ip), vehicle: saline) 0 of 3; (dose: 200.0 mg/kg/injection, schedule: Q04DX002 (ip), vehicle: saline) 0 of 3; under setting [1], 0 of 3.
On to `Cc1ccc(NS(=O)(=O)c2ccc(Br)cc2)c(C)c1`, for which, under “dose: 100.0 mg/kg/injection, schedule: Q01DX009 (ip), vehicle: saline with Tween-80”, the survivor count is 6 of 6.
Consider `O=C(N/N=C/c1ccc(-c2ccccc2)cc1)Nc1ccccc1`, for which the survivor count (dose: 400.0 mg/kg/injection, schedule: Q01DX009 (ip), vehicle: saline with Tween-80) was 5 of 6.
As to `CCN(Cc1ccc(Cl)c(Cl)c1)c1ccc2nc(N)nc(N)c2c1C`, under “dose: 12.5 mg/kg/injection, schedule: Q01DX009 (ip), vehicle: water”, the T/C is 132 % of control. Also, the survivor count was 6 of 6 (2×) (dose: 25.0 mg/kg/injection, schedule: Q01DX009 (ip), vehicle: water); 6 of 6 (dose: 50.0 mg/kg/injection, schedule: Q01DX009 (ip), vehicle: water); 2 of 6 (dose: 100.0 mg/kg/injection, schedule: Q01DX009 (ip), vehicle: water); 1 of 6 (dose: 200.0 mg/kg/injection, schedule: Q01DX009 (ip), vehicle: water); 0 of 6 (dose: 400.0 mg/kg/injection, schedule: Q01DX009 (ip), vehicle: water).
For `COC1/C=C/OC2(C)Oc3c(C)c(O)c4c(O)c(c(/C=N/N(C)c5ncnc6c5ncn6C5OC(CO)C(O)C5O)c(O)c4c3C2=O)NC(=O)C(C)=C/C=C/C(C)C(O)C(C)C(O)C(C)C(OC(C)=O)C1C` (stereo not drawn), the T/C under setting [2] was 128 % of control.
